Values of other authors, collected in PMC11213733, “Computational approaches identify a transcriptomic fingerprint of drug-induced structural cardiotoxicity” (Cell Biology and Toxicology, 2024).

Conditions: compound annotation; ref FDA label; cited from earlier work

CN(C)CCN(Cc1cccs1)c1ccccn1 [Methapyrilene]
Functional cardiotoxin?: Y
